Among the data in patent US20190194329A1 (AbbVie / Abbott, published 2019) are binding values, retold here.

These are yes or no findings as the source states them, for the method shown. Some entries that bind do so weakly or less than the wild type. Sequences can lack the tags named with a protein.

The target in the assay is T1, His-tagged ECD of mouse 4-1BB (mouse, UniProt P20334 24-187).
T1 construct: also called murine 4-1BB; mu4-1BB; not shown: His tag
T1 sequence: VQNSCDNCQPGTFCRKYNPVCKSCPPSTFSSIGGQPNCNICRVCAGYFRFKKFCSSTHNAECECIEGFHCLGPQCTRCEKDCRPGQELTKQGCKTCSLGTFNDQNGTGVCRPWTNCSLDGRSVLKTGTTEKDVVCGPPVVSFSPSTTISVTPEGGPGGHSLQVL
Briefly: SPR (Biacore).

B1: Rat TABBY108 with rat IgG1 constant (antibody, V domains shown)
VH: EIQLQESGPGLVRPSQSLSLACSVTGYTITSAYDWSWIRKFPGNKMEWMGYIAYIGFTNSNPSLKSRISITRDTSKNQFFLQLKSVTTEDTATYYCARWSSYIPRYFDFWGPGTMVTVSS
VL: QAVLTQPNSVSTSLGSTVKLSCTITSGNIEDNFVHWYQHYEGRSPTTMIHNDDKRPDGVPDRFSGSIDSSSNSAFLTINNVEIEDEAIYFCHSYVSSINIFGGGTKLTVL
In the case of B1, the binding result is “binds”.
